Several values for one entry are separate records, joined by “and”; a condition that tells them apart may be missing. Equal values may be shown once. Part of at least one peptide drawing is inferred or uncertain, most often the ends. Ends that are not written are not given here.
Tests used:
[1] = biological target: T1, constitutive proteasome (Homo sapiens, UniProt P28072+P28074+Q99436); assay: In vitro proteasome digestion of the precursor peptide, constitutive proteasome; format: biochemical; conditions: conclusion from digest of WT1.314-336
T1 construct: Proteasomes were isolated from the EBV-transformed B-cell line; endogenous in cells; host or cells: LCL-721.174 (EBV-transformed B-cell line)
Protocol: Purification of 20S proteasomes, in vitro degradation of WT1.314-336 (SEQ ID NO: 6), and separation and analysis of cleavage products were performed as described (16). 10 nmol (27.6 µg) of WT1.314-336 were incubated for 6 h with 2 µg immunoproteasome or with 2 µg of constitutive proteasome, respectively, in digestion buffer (20 mM Tris-HCI; pH 7.6; 10 mM NaCl; 10 mM KCI; 2 mM MgCl2; 0.5 mM DTT) and the reaction stopped by freezing the reaction mixture at -80°C.
One crucial prerequisite for a peptide to be presented as a T-cell epitope is its proper excision from the protein. We analyzed in vitro digestion of the […] WT1-derived peptide 314-336 (SEQ ID NO: 6) encompassing the WT1.317-327 epitope […] (SEQ ID NO: 1) by constitutive as well as immunoproteasomes (Fig. 2). Proteasomes were isolated from the EBV-transformed B-cell line LCL-721.174 (constitutive proteasome) and the parental cell line LCL-721 (immunoproteasome, ref. 16) and were used for digestion with a 6-hour incubation period. A combination of Edman sequencing and MALDI-TOF mass spectrometry was subsequently performed to determine the identity and quantity of peptides generated after proteasome digestion. The amount of fragments detected is indicated.

Chains of the proteins cited; added tags and fusions are not shown. Lines headed by an entry give the natural chain unless they say otherwise; changes in a name come on top.
UniProt P28072: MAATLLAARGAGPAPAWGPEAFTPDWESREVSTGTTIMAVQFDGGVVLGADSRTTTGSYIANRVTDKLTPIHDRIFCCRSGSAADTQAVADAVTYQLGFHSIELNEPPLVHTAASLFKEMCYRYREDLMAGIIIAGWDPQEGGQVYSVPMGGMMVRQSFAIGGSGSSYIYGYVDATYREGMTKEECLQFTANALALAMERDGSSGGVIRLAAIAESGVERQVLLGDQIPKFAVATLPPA
UniProt P28074: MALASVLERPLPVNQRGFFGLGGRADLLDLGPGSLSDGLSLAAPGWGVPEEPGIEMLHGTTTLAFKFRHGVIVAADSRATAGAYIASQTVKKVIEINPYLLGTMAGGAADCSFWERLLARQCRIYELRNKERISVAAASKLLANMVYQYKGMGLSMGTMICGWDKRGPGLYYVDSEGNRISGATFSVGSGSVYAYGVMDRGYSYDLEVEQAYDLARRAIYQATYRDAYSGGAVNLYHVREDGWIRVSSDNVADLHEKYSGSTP
UniProt Q99436: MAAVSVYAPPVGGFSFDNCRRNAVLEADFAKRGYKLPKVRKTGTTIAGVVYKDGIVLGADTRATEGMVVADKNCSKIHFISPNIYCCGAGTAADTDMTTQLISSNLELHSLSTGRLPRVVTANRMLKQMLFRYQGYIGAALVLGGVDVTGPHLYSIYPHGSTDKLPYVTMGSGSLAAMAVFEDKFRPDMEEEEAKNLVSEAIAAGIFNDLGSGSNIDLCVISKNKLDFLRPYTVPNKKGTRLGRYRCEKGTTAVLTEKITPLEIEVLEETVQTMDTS

[2] = test system: CD3^+CD8^+ T-cells; assay: Flow cytometry of peptide-induced intracellular IFNγ in PBMC (ex vivo T-cell reactivity screening); format: cell-based, human

TSEKRPFMCAY [WT1.317-327]
proteasomal generation of epitope [1]: able to generate both termini of this epitope | T-cell response to epitope ([2]; 10 HLA-A*01-positive healthy subjects): no T-cell response | patients with T-cells specifically secreting IFNγ in response to peptide ([2]; AML patients): 2 of 4 | patients with T-cells specifically secreting IFNγ in response to peptide ([2]; SC recipients): 3 of 10 | frequencies of T-cells specifically secreting IFNγ in response to peptide, % of CD3^+CD8^+ T-cells ([2]; the five responding patients (AML patients and SC recipients), percentage of IFNγ+ CD3^+CD8^+ T-cells in response to HIV peptide subtracted): 1.5% and 0.8% and 0.6% and 0.4%
